Reference: paper PMC4746591, “Internal (His)6-tagging delivers a fully functional hetero-oligomeric class II chaperonin in high yield” (Scientific Reports, 2016)
These are yes or no findings as the source states them, for the method shown. For some of these results: Binding seen in cells or lysates may run through a third protein. Some binding calls cover weakened binding; strength is not graded here. Sequences can lack the tags named with a protein.

Key:
[1] = biological target: T1, thermosome α subunit with a (His)6-tag downstream Lys144 (αK144Ht) (Thermoplasma acidophilum) (UniProt P48424); assay: pull-down; Nickel affinity chromatography (5 ml HisTrap FF) of the lysate of E. coli co-expressing tagged α and untagged β; 20 mM NaPho, 0.5 M NaCl, 20 mM imidazole, pH 7.2; elution at about 100 mM imidazole; room temperature; fractions checked by SDS-PAGE
T1 sequence: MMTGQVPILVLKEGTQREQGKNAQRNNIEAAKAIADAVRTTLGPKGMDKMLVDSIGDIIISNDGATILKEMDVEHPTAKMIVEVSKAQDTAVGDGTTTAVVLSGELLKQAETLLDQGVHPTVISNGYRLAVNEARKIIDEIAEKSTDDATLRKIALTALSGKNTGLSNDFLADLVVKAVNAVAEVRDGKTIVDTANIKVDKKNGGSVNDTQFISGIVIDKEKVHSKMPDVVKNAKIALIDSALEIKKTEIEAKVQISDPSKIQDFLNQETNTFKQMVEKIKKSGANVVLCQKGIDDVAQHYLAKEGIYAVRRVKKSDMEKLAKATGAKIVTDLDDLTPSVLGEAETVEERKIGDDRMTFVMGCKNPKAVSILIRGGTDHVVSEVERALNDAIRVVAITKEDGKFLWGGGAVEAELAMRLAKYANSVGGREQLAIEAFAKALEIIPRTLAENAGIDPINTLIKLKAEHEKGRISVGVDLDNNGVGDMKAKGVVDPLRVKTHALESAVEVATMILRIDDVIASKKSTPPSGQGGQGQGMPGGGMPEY

[2] = biological target: T1, thermosome α subunit with a (His)6-tag downstream Lys144 (αK144Ht) (Thermoplasma acidophilum); assay: negative-stain and cryo-electron microscopy, 2D class averages; purified tagged complex in the apo state; 2% uranyl acetate or vitrified; FEI Tecnai F20, 200 kV; the resolution does not show the arrangement of the subunits; both purified
[3] = biological target: T1, thermosome α subunit with a (His)6-tag downstream Lys144 (αK144Ht) (Thermoplasma acidophilum); assay: native gel or EMSA; native gel electrophoresis of the SEC peak, beside the un-tagged recombinant thermosome; subunits co-expressed and co-purified; both purified
[4] = biological target: T2, thermosome α subunit, wild type (un-tagged) (Thermoplasma acidophilum) (UniProt P48424); assay: as above
T2 sequence: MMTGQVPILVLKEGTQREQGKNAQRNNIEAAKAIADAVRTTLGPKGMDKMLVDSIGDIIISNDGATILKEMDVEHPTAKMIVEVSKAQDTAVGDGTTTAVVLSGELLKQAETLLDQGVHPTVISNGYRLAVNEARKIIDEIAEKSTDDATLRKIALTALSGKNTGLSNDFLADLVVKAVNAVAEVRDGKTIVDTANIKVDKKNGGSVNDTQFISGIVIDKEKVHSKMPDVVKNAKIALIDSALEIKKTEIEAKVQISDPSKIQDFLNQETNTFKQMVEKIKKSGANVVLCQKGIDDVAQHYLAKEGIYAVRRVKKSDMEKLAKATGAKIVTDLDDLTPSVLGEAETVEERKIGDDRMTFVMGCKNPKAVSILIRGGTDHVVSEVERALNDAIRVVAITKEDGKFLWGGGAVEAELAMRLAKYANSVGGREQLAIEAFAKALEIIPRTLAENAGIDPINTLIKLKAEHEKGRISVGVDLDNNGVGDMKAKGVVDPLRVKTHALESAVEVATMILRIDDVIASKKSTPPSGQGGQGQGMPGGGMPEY

Measured: binding

B1: thermosome β subunit (natural protein, Thermoplasma acidophilum)
chain: MIAGQPIFILKEGTKRESGKDAMKENIEAAIAISNSVRSSLGPRGMDKMLVDSLGDIVITNDGVTILKEMDVEHPAAKMMVEVSKTQDSFVGDGTTTAVIIAGGLLQQAQGLINQNVHPTVISEGYRMASEEAKRVIDEISTKIGADEKALLLKMAQTSLNSKSASVAKDKLAEISYEAVKSVAELRDGKYYVDFDNIQVVKKQGGAIDDTQLINGIIVDKEKVHPGMPDVVKDAKIALLDAPLEIKKPEFDTNLRIEDPSMIQKFLAQEENMLREMVDKIKSVGANVVITQKGIDDMAQHYLSRAGIYAVRRVKKSDMDKLAKATGASIVSTIDEISSSDLGTAERVEQVKVGEDYMTFVTGCKNPKAVSILVRGETEHVVDEMERSITDSLHVVASALEDGAYAAGGGATAAEIAFRLRSYAQKIGGRQQLAIEKFADAIEEIPRALAENAGLDPIDILLKLRAEHAKGNKTYGINVFTGEIEDMVKNGVIEPIRVGKQAIESATEAAIMILRIDDVIATKSSSSSSNPPKSGSSSESSED
notes: thermosome β subunit, Thermoplasma acidophilum, P48425; untagged; Eight copies stand in the α8/β8 hexadecamer; also called un-tagged β-subunit; source: E. coli BL21(DE3) Codon Plus-RIL, co-expressed in tandem with the α subunit (αK144HTTherm or pETTherm α/β); in lysate, then purified with the complex
binds: [1] | [2] | [3] | [4]
